Measured values reported in patent US20250092146A1, “ANTI-CCR8 ANTIBODIES, CONJUGATES, AND USES THEREOF” (Abilita Bio, Inc., priority 2023, published 2025).
Changes are numbered by the printed parent chain. Results are given in words; binding and its absence hold for the method and conditions named. Some results given as binding are weak or reduced against the parent protein; the word gives no strength. Values belong to the binder of their own block, whether it stands above or below them.

Sequences of proteins named here, by UniProt entry; tags and fusion partners are left off. A change or cut given only in a name is not applied to a line headed by its entry.
UniProt P51685: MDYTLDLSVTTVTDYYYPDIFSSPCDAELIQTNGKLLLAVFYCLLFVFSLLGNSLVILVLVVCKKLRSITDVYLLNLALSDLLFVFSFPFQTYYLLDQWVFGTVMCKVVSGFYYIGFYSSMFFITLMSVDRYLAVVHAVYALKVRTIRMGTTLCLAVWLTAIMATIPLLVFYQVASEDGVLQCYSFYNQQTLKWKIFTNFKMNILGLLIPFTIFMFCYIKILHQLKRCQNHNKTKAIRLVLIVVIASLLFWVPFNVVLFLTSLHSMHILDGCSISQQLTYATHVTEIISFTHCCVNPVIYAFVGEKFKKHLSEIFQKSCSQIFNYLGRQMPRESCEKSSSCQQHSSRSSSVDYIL

Molecular target: human CCR8 (hCCR8) (human) (UniProt P51685)
Test: flow cytometry on HEK293-hCCR8 cells, anti-VHH detection

- binding: binds
B1: VHH-1 (VHH, not shown: small tags and cut ends)
VHH: QVQLQESGGGLVQAGGSLRLSCVASGSTSSIRRIGWYRQAPGKQRELVARFSSGGGTNYADFVKGRFTISGDNAKNTMYLQMNSLKPEDTAVYYCSARRLLGTSRVDYWGQGTQVTVSS

- binding: binds
B2: VHH-3 (VHH, not shown: small tags and cut ends)
VHH: B1 VHH with S96G
